These are yes or no findings as the source states them, for the method shown. Binding seen in cells or lysates may run through a third protein. Some results given as binding are weak or reduced against the parent protein; the word gives no strength.
Experiments:
[1] = biological target: T1, ZIP10 (SLC39A10) zinc transporter, endogenous in cells (human) (UniProt Q9ULF5); test: proximity ligation assay with ZIP6-Y and ZIP10 antibodies, nocodazole-treated MCF-7 cells
T1 sequence: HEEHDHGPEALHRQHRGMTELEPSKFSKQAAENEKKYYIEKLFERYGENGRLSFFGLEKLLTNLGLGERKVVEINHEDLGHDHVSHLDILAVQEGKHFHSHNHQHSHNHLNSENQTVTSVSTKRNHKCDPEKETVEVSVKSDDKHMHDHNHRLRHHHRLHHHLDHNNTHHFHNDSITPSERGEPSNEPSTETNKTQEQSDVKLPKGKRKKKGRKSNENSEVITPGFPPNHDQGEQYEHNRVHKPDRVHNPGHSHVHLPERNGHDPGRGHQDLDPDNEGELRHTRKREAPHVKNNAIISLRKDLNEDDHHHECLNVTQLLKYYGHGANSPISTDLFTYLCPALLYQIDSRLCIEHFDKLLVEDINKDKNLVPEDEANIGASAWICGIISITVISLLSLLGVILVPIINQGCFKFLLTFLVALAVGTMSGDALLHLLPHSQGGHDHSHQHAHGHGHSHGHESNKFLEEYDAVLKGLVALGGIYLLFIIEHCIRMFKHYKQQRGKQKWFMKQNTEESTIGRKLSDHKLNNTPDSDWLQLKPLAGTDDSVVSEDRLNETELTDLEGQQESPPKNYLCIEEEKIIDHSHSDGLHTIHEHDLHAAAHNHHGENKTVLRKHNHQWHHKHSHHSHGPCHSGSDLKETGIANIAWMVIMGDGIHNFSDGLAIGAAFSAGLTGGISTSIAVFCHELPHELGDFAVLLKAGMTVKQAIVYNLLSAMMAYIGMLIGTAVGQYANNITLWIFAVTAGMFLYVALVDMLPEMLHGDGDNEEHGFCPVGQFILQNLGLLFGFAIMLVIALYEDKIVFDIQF

[2] = biological target: T1, ZIP10 (SLC39A10) zinc transporter, endogenous in cells (human); test: proximity ligation assay, nocodazole-treated MCF-7 cells

B1: recombinant ZIP6 wild-type with C-terminal V5 tag (other)
chain: FPQTTEKISPNWESGINVDLAISTRQYHLQQLFYRYGENNSLSVEGFRKLLQNIGIDKIKRIHIHHDHDHHSDHEHHSDHERHSDHEHHSEHEHHSDHDHHSHHNHAASGKNKRKALCPDHDSDSSGKDPRNSQGKGAHRPEHASGRRNVKDSVSASEVTSTVYNTVSEGTHFLETIETPRPGKLFPKDVSSSTPPSVTSKSRVSRLAGRKTNESVSEPRKGFMYSRNTNENPQECFNASKLLTSHGMGIQVPLNATEFNYLCPAIINQIDARSCLIHTSEKKAEIPPKTYSLQIAWVGGFIAISIISFLSLLGVILVPLMNRVFFKFLLSFLVALAVGTLSGDAFLHLLPHSHASHHHSHSHEEPAMEMKRGPLFSHLSSQNIEESAYFDSTWKGLTALGGLYFMFLVEHVLTLIKQFKDKKKKNQKKPENDDDVEIKKQLSKYESQLSTNEEKVDTDDRTEGYLRADSQEPSHFDSQQPAVLEEEEVMIAHAHPQEVYNEYVPRGCKNKCHSHFHDTLGQSDDLIHHHHDYHHILHHHHHQNHHPHSHSQRYSREELKDAGVATLAWMVIMGDGLHNFSDGLAIGAAFTEGLSSGLSTSVAVFCHELPHELGDFAVLLKAGMTVKQAVLYNALSAMLAYLGMATGIFIGHYAENVSMWIFALTAGLFMYVALVDMVPEMLHNDASDHGCSRWGYFFLQNAGMLLGFGIMLLISIFEHKIVFRINF
notes: Expressed by transfection and immunoprecipitated from cell lysate with V5 antibody; also called ZIP6 wild-type (WT); ZIP6/LIV-1/SLC39A6 in pcDNA3.1/V5-His-TOPO; not shown: C-terminal V5 tag from vector pcDNA3.1/V5-His-TOPO
- binding [1]: binds
- binding [2]: binds
